Some peptides are written in HELM: one residue between dots, names in brackets for other building blocks, links after the first $.
Assay: peptide made by a vendor
Conditions: whole synthesis

In the case of PEPTIDE1{A.Y.M.T.M.K.I.R.N}$$$$V2.0, the “final HPLC purity” value is reported as “exceed 95%”.

From US6599501B1 (Steeno Research Group A/S, priority 1994, dated 2003)
